Measured values from patent US6518339B1, “Aldehyde emission reduction for dibenzylidene sorbitol clarified plastics” (Milliken & Company, priority 2000, dated 2003).
“And” between values parts separate entries of the source, which are not always exact repeats. Identical values can stand only once.

Assay: Organoleptic taste test of plaque extraction water (ASTM STP 434 / STP 758)
Conditions: General Formulation + 2200 ppm MDBS + 500 ppm ADH, eleven judges, extraction water 50° C. five days, first and second trial
Experimental: Organoleptic testing was carried out based on the general guidelines given in ASTM STP 434 and STP 758. Six 3″×2″×0.05″ plaques of both formulations listed in Table III were placed into ajar containing 700 ml of tap water. Glass pipettes were used to separate the plaques and ensure all surface area was exposed to the extraction water. These jars were then placed into an oven and held at 50° C. for five days. The jars were refrigerated for one day and the extraction water was decanted into cups for taste testing. Each of eleven judges were presented with two pairs of cups and asked to evaluate each cup in a pair against the other and report in which water sample they detected the least taste. The pair tasted contained extraction water from plaques containing 2200 ppm MDBS and extraction water from a similar formulation that additionally had been compounded with 500 ppm of adipic dihydrazide (ADH) (EXAMPLE 2, above). When run in accordance with the ASTM procedures, a statistically significant majority of judges is nine.

NNC(=O)CCCCC(=O)NN [Example 2, Adipic dihydrazide]
Number of Judges Selecting Listed Formulations as Having Least Taste: 11 and 9
